No constants are given. Whether binding was seen depends on the method and setting. Binding seen in cells or lysates may run through a third protein. A result given as binding can be weak or reduced; the word gives no strength.

By UniProt entry, the sequences of proteins in these tests, tags left out. Where a name states a change or a piece, a line headed by the entry shows the natural chain unless it says otherwise. Chains listed by the source or under a name are the forms on record and can include a tag or linker. Residues count along the entry.
UniProt Q9VQ56: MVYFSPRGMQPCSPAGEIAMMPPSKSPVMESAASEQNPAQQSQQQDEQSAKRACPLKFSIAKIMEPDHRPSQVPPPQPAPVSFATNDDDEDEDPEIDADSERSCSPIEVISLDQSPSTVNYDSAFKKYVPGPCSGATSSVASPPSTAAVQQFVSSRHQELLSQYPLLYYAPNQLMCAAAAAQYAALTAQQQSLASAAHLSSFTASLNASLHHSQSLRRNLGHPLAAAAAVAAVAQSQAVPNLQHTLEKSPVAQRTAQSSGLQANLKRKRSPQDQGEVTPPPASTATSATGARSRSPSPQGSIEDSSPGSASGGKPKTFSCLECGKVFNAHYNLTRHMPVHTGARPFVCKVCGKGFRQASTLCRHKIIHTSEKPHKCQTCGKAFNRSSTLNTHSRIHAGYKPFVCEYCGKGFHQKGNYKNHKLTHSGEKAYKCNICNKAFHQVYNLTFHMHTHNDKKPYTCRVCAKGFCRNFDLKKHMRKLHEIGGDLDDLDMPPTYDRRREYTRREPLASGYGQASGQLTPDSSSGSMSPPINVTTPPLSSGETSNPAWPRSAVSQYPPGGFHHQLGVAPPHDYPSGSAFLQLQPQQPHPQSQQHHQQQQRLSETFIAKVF
MBP-Erm-N (Maltose-Binding Protein fused to Erm 1-441aa) (Drosophila (D. melanogaster)): residues 1-441 of Q9VQ56
MBP-Erm-C (Maltose-Binding Protein fused to Erm 332-611aa) (Drosophila (D. melanogaster)): residues 332-611 of Q9VQ56
UniProt Q24090: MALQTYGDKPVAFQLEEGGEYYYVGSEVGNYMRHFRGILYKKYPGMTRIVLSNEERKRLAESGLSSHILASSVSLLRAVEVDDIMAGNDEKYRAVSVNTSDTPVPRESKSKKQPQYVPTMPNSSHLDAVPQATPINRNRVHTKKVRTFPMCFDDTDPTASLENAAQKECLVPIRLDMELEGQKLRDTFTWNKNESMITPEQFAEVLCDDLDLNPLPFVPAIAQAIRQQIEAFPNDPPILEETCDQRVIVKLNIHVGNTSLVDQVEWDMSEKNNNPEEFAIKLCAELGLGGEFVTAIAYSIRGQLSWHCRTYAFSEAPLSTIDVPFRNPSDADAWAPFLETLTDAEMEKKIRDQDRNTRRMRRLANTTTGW

Test [1] concerns the target Flag-tagged Erm N-terminal 1-441aa (Drosophila (D. melanogaster)) (UniProt Q9VQ56). Kind of test: co-IP; S2 cells co-transfected with Flag- and Myc-tagged proteins; lysis buffer 25 mM Tris pH8, 27.5 mM NaCl, 20 mM KCl, 0.5% Nonidet P40; IP with anti-Myc or anti-Flag overnight at 4°C, protein A/G beads; western blot with anti-Flag and anti-Myc. (In western blotting, separated proteins are transferred to a membrane and probed.)

For test [2], the target named is Flag-tagged Erm C-terminal 332-611aa (Drosophila (D. melanogaster)) (UniProt Q9VQ56). Described as above.
In test [3] the target is MBP-Erm-N (Maltose-Binding Protein fused to Erm 1-441aa) (Drosophila (D. melanogaster)) (UniProt Q9VQ56). The test is described as follows: pull-down; 50 μg purified MBP or MBP fusion protein bound on amylose resin, incubated 3 hr at 4°C with protein extracts from transfected S2 cells; washed three times with lysis buffer; western blot with anti-Myc; only the target purified.

Test [4] concerns the target MBP-Erm-C (Maltose-Binding Protein fused to Erm 332-611aa) (Drosophila (D. melanogaster)) (UniProt Q9VQ56). The test is described as above.

As for Myc-tagged Snr1 (from UniProt Q24090), the binding result in test [1] is on record as “binds”; in test [2] it was “binds”; in test [3], “binds”; in test [4], “binds weakly”.

Source of the values: article PMC3944433.
